Data on 35 compounds can be found in PubChem BioAssay AID1487 (National Center for Advancing Translational Sciences (NCATS), 2009).

A short description of the experiment: qHTS Assay for Modulators of Lamin A Splicing. To be noted: HeLa LMNA splicing GFP/RFP minigene ratio, 48 h. The gist of the method:
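Read-out is the ratio of GFP to DsRed2 object intensity, acquired by 488 nm laser-scanning cytometry on HeLa lamin A-EGFP minigene reporter cells. Compound incubation 48 hrs at 37 °C in Opti-MEM with 2% FBS; DMSO 0.5% final.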
For orientation: qHTS replaces the single test concentration by a dilution series.

The mark [1] stands for this setting: measured here: GFP splicing reporter channel.
Setting [2] is: measured here: RFP viability control channel.

Each structure is given as a SMILES string. The list shows a part of the results. The main result of the screen is listed elsewhere. These columns were measured beside it and carry no call. The list favours compounds with an active or inconclusive main result. Words in brackets tell the shape of the fitted curve; partial curves, single points and poor fits give uncertain potencies.

What is called AC50 is the concentration giving half of the maximal activity seen. Consider `OC1CCN(c2cc(-c3ccccc3)nc3cc(-c4ccc(F)cc4)nn23)CC1`, for which the AC50 under setting [1] was 35.5 µM [falling, single point] and the concentration at half-maximal activity (AC50) under setting [2] was 35.5 µM [falling, single point].

Consider `O=C(Nc1ccccc1Br)N1CCC(CN2CCCC2)CC1`, for which the AC50 under setting [2] is 0.0316 µM [falling, full curve, poor fit].

With `CCOc1ccccc1Cn1c(=O)oc2ccc(C)cc21`, under setting [2], the AC50 is 31.6 µM [rising, single point].

Regarding `O=C(c1cccc(COc2cccc3ccccc23)c1)N1CCCC1`, under setting [2], the AC50 is 22.4 µM [rising, single point].

Consider `c1ccc(-c2cc3c(N4CCN(c5ccccc5)CC4)ncnc3s2)cc1`, for which, under setting [2], the AC50 is 0.891 µM [rising, full curve].

As for `COc1ccc(NS(=O)(=O)c2cc(NC(=O)c3cnccn3)ccc2N2CCCC2)cc1`, the concentration at half-maximal activity (AC50) under setting [1] was 3.98 µM [falling, partial curve, poor fit].

Regarding `Cc1ccc(N(CC(=O)Nc2ccc(F)cc2)S(=O)(=O)N2CCCC2)cc1`, the half-maximal activity concentration (AC50) is 31.6 µM [rising, single point] under setting [1] and 35.5 µM [rising, single point] under setting [2].

Take `CCC(C)c1ccccc1NC(=S)Nc1cccnc1` (configuration not stated): the AC50 under setting [1] is 35.5 µM [rising, single point].

Regarding `O=C(NC(=S)N1CCN(c2ccc([N+](=O)[O-])cc2)CC1)c1ccc(F)cc1`, the AC50 under setting [1] is 22.4 µM [rising, single point].

In the case of `COc1ccc(CN2CCN(C(=O)c3cc(-c4cccnc4)nc4ccc(Cl)cc34)CC2)c(OC)c1OC`, the AC50 was 0.0355 µM [rising, full curve, poor fit] under setting [1] and 22.4 µM [rising, partial curve, poor fit] under setting [2].

Take `CCN1C(=O)c2cccc3c(S(=O)(=O)Nc4ccc(OC)cc4OC)ccc1c23`: the AC50 under setting [1] is 12.6 µM [rising, partial curve] and the AC50 under setting [2] was 14.1 µM [rising, partial curve].

Turning to `CCC1CN(C(=O)C2CCN(S(=O)(=O)c3c(C)noc3/C=C/c3ccccc3F)CC2)c2cc(C)ccc2O1` (configuration not stated), under setting [2], the AC50 was 0.0562 µM [rising, full curve, poor fit].

Consider `COC(=O)c1[nH]c2ccccc2c1NC(=O)CN1CC(C)OC(C)C1` (configuration not stated), for which the AC50 under setting [1] was 3.16 µM [rising, partial curve].

As for `O=C(CSc1nnc(-c2ccco2)n1Cc1ccccc1)NC(=O)NCc1ccccc1`, under setting [2], the AC50 was 20 µM [rising, single point].

For the compound `Cc1ccc(C)c(OCc2ccc(C(=O)N3N=C(C(F)F)CC3(O)C(F)F)o2)c1` (configuration not stated), the AC50 under setting [2] was 17.8 µM [rising, single point].

As to `CCOc1ccc(-c2nnc(-c3ccncc3)o2)cc1OCC`, the AC50 under setting [1] is 3.16 µM [rising, partial curve, poor fit].

Take `CCN1CCN(c2cc(C)c3cc(NC(=O)c4ccc(OC)c(OC)c4)ccc3n2)CC1`: the AC50 under setting [2] is 20 µM [rising, single point].

`CCc1cccc(NC(=O)C2CCN(S(=O)(=O)c3cccc(-c4noc(C)n4)c3)CC2)c1`: the AC50 under setting [2] was 0.0282 µM [falling, full curve].

Consider `NS(=O)(=O)c1cc2c(cc1Cl)NC(C(Cl)Cl)NS2(=O)=O` (configuration not stated), for which, under setting [1], the AC50 is 0.0891 µM [rising, full curve, poor fit].

`COc1ccc(C2c3cccn3CCN2S(=O)(=O)c2ccc([N+](=O)[O-])cc2)cc1` (configuration not stated): the AC50 under setting [2] was 12.6 µM [rising, partial curve, poor fit].

Take `O=C(Nc1ccc(F)cc1)c1nc[nH]c1C(=O)Nc1ccccc1[N+](=O)[O-]`: the AC50 under setting [1] was 3.16 µM [falling, full curve].

As for `CCOc1ccc(NC(=S)N(CCc2c(C)[nH]c3ccc(C)cc23)Cc2cccnc2)cc1`, under setting [2], the AC50 is 0.0631 µM [rising, partial curve, poor fit].

On to `CCCCc1cc2c(cn1)=C(OC(=O)c1cccs1)C(C)(OC(=O)CC)C(=O)C=2` (configuration not stated), for which the AC50 under setting [1] is 0.00158 µM [rising, full curve, poor fit].

`CN1CCN(C2Cc3ccccc3Sc3ccc(Cl)cc32)CC1` (configuration not stated): the AC50 runs as follows: under setting [1], 28.2 µM [falling, partial curve, poor fit]; under setting [2], 35.5 µM [falling, partial curve, poor fit].

For the compound `CNc1ccccc1C(C)(C)c1cc(-c2ccco2)n[nH]1`, the AC50 by setting is: under setting [1], 10 µM [rising, partial curve, poor fit]; under setting [2], 12.6 µM [rising, single point].

As for `O=C(CSc1nnc(COc2cccc3cccnc23)o1)c1ccc(F)cc1`, the AC50 is, setting by setting: under setting [1], 11.2 µM [rising, partial curve]; under setting [2], 11.2 µM [rising, single point].

Turning to `Cc1nn(C)c2c1c(C(F)(F)F)cc(=O)n2CC(=O)N1CCC(C)CC1`, the AC50 reads like this: under setting [1], 35.5 µM [rising, single point]; under setting [2], 35.5 µM [rising, single point].

With `CC(C)c1ccc(CN(C(=O)C2COc3ccccc3O2)C2CCS(=O)(=O)C2)cc1` (configuration not stated), the AC50 was 0.316 µM [falling, full curve] under setting [1] and 0.282 µM [falling, full curve] under setting [2].

Consider `O=C(c1cc2cc([N+](=O)[O-])ccc2oc1=O)N1CCOCC1`, for which the AC50 under setting [2] was 11.2 µM [rising, single point].

In the case of `COc1ccc(S(=O)(=O)NCC2CCCN(C(=O)C=C(C)C)C2)cc1` (configuration not stated), the AC50 is, setting by setting: under setting [1], 1.26 µM [falling, full curve]; under setting [2], 0.0501 µM [falling, full curve].

Take `CC(=O)N1CC=CC1(CC(C)C)C(=O)NCCN1CCOCC1` (configuration not stated): the AC50 runs as follows: under setting [1], 3.98 µM [falling, partial curve, poor fit]; under setting [2], 5.62 µM [falling, partial curve, poor fit].

As to `Cc1ccc(-n2nnnc2SC(C)C(=O)NCC(=O)Nc2ccc(F)c(F)c2F)c(C)c1` (configuration not stated), the AC50 under setting [2] was 11.2 µM [rising, partial curve].

In the case of `CC(C)c1ccc(/C=N/NC(=O)CC(=O)NC2CCCCC2)cc1`, under setting [2], the AC50 is 0.282 µM [falling, full curve, poor fit].

As for `CN(Cc1ccco1)c1ccnc(-c2ccoc2)n1`, the AC50 under setting [1] is 31.6 µM [rising, single point].

For the compound `COC(=O)c1[nH]c2cccc(Cl)c2c1NC(=O)CN(C)C1CCCCC1`, the AC50 under setting [1] is 4.47 µM [rising, full curve, poor fit] and the AC50 under setting [2] was 3.55 µM [rising, full curve, poor fit].
